The values below come from PMC12276184.

No constants are given. Whether binding was seen depends on the method and setting. Binding seen in cells or lysates may run through a third protein. Some binding calls cover weakened binding; strength is not graded here. Sequences can lack the tags named with a protein.

For this assay, the target named is T1, FLAG tagged YTHDF2 overexpressed in HEK293T cells (human) (UniProt Q9Y5A9).
T1 sequence: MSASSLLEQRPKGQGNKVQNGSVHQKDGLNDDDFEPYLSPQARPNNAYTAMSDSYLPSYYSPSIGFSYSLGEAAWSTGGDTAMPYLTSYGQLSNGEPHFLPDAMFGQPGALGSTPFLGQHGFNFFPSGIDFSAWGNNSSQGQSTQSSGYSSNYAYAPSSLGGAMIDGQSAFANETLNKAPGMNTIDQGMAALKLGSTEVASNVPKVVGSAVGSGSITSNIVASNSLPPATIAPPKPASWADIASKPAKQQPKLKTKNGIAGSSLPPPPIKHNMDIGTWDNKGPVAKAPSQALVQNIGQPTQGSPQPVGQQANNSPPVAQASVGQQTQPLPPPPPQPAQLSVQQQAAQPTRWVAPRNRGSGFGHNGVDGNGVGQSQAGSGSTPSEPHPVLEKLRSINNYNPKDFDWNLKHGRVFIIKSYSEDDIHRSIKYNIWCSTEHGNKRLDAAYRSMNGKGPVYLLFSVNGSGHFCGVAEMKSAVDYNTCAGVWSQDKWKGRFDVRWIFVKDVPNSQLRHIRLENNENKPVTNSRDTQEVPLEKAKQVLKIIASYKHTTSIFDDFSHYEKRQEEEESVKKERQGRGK
In words: co-IP; reciprocal co-immunoprecipitation from HEK293T cells overexpressing PLEK2 and YTHDF2; immunoblotting. (In general: Immunoblotting shows a protein as a band on a membrane.)

B1: HA tagged PLEK2 overexpressed in HEK293T cells (protein, UniProt Q9NYT0 1-353)
chain: MEDGVLKEGFLVKRGHIVHNWKARWFILRQNTLVYYKLEGGRRVTPPKGRILLDGCTITCPCLEYENRPLLIKLKTQTSTEYFLEACSREERDAWAFEITGAIHAGQPGKVQQLHSLRNSFKLPPHISLHRIVDKMHDSNTGIRSSPNMEQGSTYKKTFLGSSLVDWLISNSFTASRLEAVTLASMLMEENFLRPVGVRSMGAIRSGDLAEQFLDDSTALYTFAESYKKKISPKEEISLSTVELSGTVVKQGYLAKQGHKRKNWKVRRFVLRKDPAFLHYYDPSKEENRPVGGFSLRGSLVSALEDNGVPTGVKGNVQGNLFKVITKDDTHYYIQASSKAERAEWIEAIKKLT
With B1, the binding result is on record as “binds”.
